The list does not hold the whole screen: it is rich in T/C values a quarter to a half above the control, in often repeated tests (any T/C) and in doses without a T/C. Further doses and runs are listed elsewhere. T/C gives the treated animals as a percentage of the vehicle group. Some doses have a count of surviving animals in place of a T/C: the source files T/C as zero there, which appears to mark a toxic dose or a test without result, not a measured value. Some survivor counts are full or nearly so, which does not show that the dose was tolerated: survival well below the control is almost never listed, so the zero probably covers shortened survival too. Counts of survivors are from the toxicity check (mostly the fifth day) where no day follows; animals may have died later. Schedule codes are those of the source, taken here to give the interval after Q, in days (D) or hours (H), and the number of doses after X. Some molecules as drawn cover several salts, stereoisomers or complexes of the source; a dose is that of the sample tested. Some entries were tested several times; the values are given in rising order. Where survival is the endpoint, the PubChem record calls one and a half times the control and up active, and a quarter to a half above the control has no call in these data; cut-offs in other NCI protocols can differ. Some T/C values are followed by the survivors on the day toxicity was checked, most often the fifth; where none is given, no animal had died by that day. Brackets with × say how often a value occurs here.
Tested on: P388 leukemia ip, CD2F1 mice, survival T/C
Assay: NCI In Vivo Anticancer Drug Screen. Data for tumor model P388 Leukemia (intraperitoneal) in CD2F1 (CDF1) mice
Settings: T/C endpoint: median survival time, higher T/C = longer survival
[1] = dose: 12.5 mg/kg/injection, schedule: Q01DX009 (ip), vehicle: saline
[2] = dose: 25.0 mg/kg/injection, schedule: Q01DX009 (ip), vehicle: saline
[3] = dose: 30.0 mg/kg/injection, schedule: Q01DX005 (iv), vehicle: water
[4] = dose: 30.0 mg/kg/injection, schedule: Q01DX009 (ip), vehicle: water
[5] = dose: 50.0 mg/kg/injection, schedule: Q01DX009 (ip), vehicle: saline

SMILES: ClCC[N+]12CC[N+](CCCl)(CC1)C2
- survivor count (dose: 3.12 mg/kg/injection, schedule: Q01DX009 (ip), vehicle: water): 6 of 6
- T/C (dose: 6.25 mg/kg/injection, schedule: Q01DX009 (ip), vehicle: saline): 128 % of control
- survivor count (dose: 6.25 mg/kg/injection, schedule: Q01DX009 (ip), vehicle: water): 1 of 6
- T/C (dose: 12.5 mg/kg/injection, schedule: Q01DX009 (ip), vehicle: distilled water + Tween-80): 108, 117, 127, 129 % of control
- T/C [1]: 126 and 128 % of control (2×)
- survivor count [1]: 5 of 6 and 6 of 6
- T/C (dose: 12.5 mg/kg/injection, schedule: Q01DX009 (ip), vehicle: water, evaluated on day 30): 95, 108 (2×), 109, 114 (2×), 126, 131, 132, 133 % of control
- T/C (dose: 12.5 mg/kg/injection, schedule: Q01DX009 (ip), vehicle: water, evaluated on day 40): 122 % of control
- survivor count (dose: 12.5 mg/kg/injection, schedule: Q01DX009 (ip), vehicle: water): 6 of 6
- T/C (dose: 21.08 mg/kg/injection, schedule: Q01DX009 (ip), vehicle: clinical formulation): 137 % of control
- T/C (dose: 25.0 mg/kg/injection, schedule: Q01DX005 (ip), vehicle: water): 125 % of control
- T/C (dose: 25.0 mg/kg/injection, schedule: Q01DX009 (ip), vehicle: distilled water + Tween-80, evaluated on day 30): 131, 141 (2×), 163 % of control
- T/C (dose: 25.0 mg/kg/injection, schedule: Q01DX009 (ip), vehicle: distilled water + Tween-80, evaluated on day 40): 147 % of control
- T/C (dose: 25.0 mg/kg/injection, schedule: Q01DX009 (ip), vehicle: saline with Tween-80): 131 and 136 % of control
- T/C [2]: 164 and 238 % of control
- survivor count [2]: 0 of 6 and 1 of 6
- T/C (dose: 25.0 mg/kg/injection, schedule: Q01DX009 (ip), vehicle: water, evaluated on day 30): 112, 114, 125, 128 [5 of 6 alive], 131, 132, 133, 138, 141 (2×), 147, 163 % of control
- T/C (dose: 25.0 mg/kg/injection, schedule: Q01DX009 (ip), vehicle: water, evaluated on day 40): 166 % of control
- survivor count (dose: 25.0 mg/kg/injection, schedule: Q01DX009 (ip), vehicle: water): 6 of 6
- T/C (dose: 30.0 mg/kg/injection, schedule: Q01DX005 (ip), vehicle: water): 133 % of control
- T/C [3]: 129 % of control
- survivor count [3]: 10 of 10
- T/C [4]: 134 % of control
- survivor count [4]: 9 of 10
- T/C (dose: 31.61 mg/kg/injection, schedule: Q01DX009 (ip), vehicle: clinical formulation): 142 % of control
- T/C (dose: 31.61 mg/kg/injection, schedule: Q01DX009 (ip), vehicle: water): 142 % of control
- T/C (dose: 44.0 mg/kg/injection, schedule: Q01DX009 (ip), vehicle: water): 146 % of control
- T/C (dose: 47.42 mg/kg/injection, schedule: Q01DX009 (ip), vehicle: clinical formulation): 149 % of control
- T/C (dose: 47.42 mg/kg/injection, schedule: Q01DX009 (ip), vehicle: water): 134 % of control
- T/C (dose: 50.0 mg/kg/injection, schedule: Q01DX005 (ip), vehicle: water): 130 % of control
- T/C (dose: 50.0 mg/kg/injection, schedule: Q01DX009 (ip), vehicle: distilled water + Tween-80): 142, 155, 175, 194 % of control
- T/C (dose: 50.0 mg/kg/injection, schedule: Q01DX009 (ip), vehicle: saline with Tween-80): 140, 146, 147 % of control
- T/C [5]: 117, 125, 186 % of control
- survivor count [5]: 0 of 6
- T/C (dose: 50.0 mg/kg/injection, schedule: Q01DX009 (ip), vehicle: water, evaluated on day 30): 129, 135, 142, 144, 147, 150, 175, 178, 182, 187, 200 % of control
- T/C (dose: 50.0 mg/kg/injection, schedule: Q01DX009 (ip), vehicle: water, evaluated on day 40): 181 % of control
- survivor count (dose: 50.0 mg/kg/injection, schedule: Q01DX009 (ip), vehicle: water): 2 of 6
- T/C (dose: 50.0 mg/kg/injection, schedule: Q04DX003 (ip), vehicle: saline with Tween-80): 145 % of control
- T/C (dose: 53.34 mg/kg/injection, schedule: Q01DX005 (iv), vehicle: clinical formulation): 127 % of control
- T/C (dose: 60.0 mg/kg/injection, schedule: Q01DX005 (iv), vehicle: water, evaluated on day 35): 143 % of control [9 of 10 alive]
- T/C (dose: 60.0 mg/kg/injection, schedule: Q01DX005 (iv), vehicle: water, evaluated on day 60): 129 % of control
- survivor count (dose: 60.0 mg/kg/injection, schedule: Q01DX005 (iv), vehicle: water): 0 of 10
- T/C (dose: 60.0 mg/kg/injection, schedule: Q01DX009 (ip), vehicle: clinical formulation): 126 % of control
- survivor count (dose: 60.0 mg/kg/injection, schedule: Q01DX009 (ip), vehicle: water): 1 of 10
- T/C (dose: 60.0 mg/kg/injection, schedule: Q01DX009 (oral), vehicle: water): 125 % of control
- T/C (dose: 80.0 mg/kg/injection, schedule: Q01DX005 (ip), vehicle: water): 130 % of control
- T/C (dose: 100.0 mg/kg/injection, schedule: Q01DX006 (ip), vehicle: water): 146 % of control
- T/C (dose: 100.0 mg/kg/injection, schedule: Q01DX009 (ip), vehicle: distilled water + Tween-80): 155, 209, 212, 231 % of control
- survivor count (dose: 100.0 mg/kg/injection, schedule: Q01DX009 (ip), vehicle: saline): 0 of 6 and 6 of 6
- T/C (dose: 100.0 mg/kg/injection, schedule: Q01DX009 (ip), vehicle: water, evaluated on day 30): 120, 136, 148, 149, 169, 173, 177, 178 (2×), 184, 203, 209, 221 % of control
- T/C (dose: 100.0 mg/kg/injection, schedule: Q01DX009 (ip), vehicle: water, evaluated on day 40): 210 % of control
- survivor count (dose: 100.0 mg/kg/injection, schedule: Q01DX009 (ip), vehicle: water): 0 of 6 and 6 of 6

Source: PubChem BioAssay AID330 (DTP/NCI, 2004)
